Results deposited as PubChem BioAssay AID743454 (Peter MacCallum Cancer Centre, 2014)
Test: 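Knock-downs lowering viability or raising caspase 3/7 activity in vorinostat-treated resistant cells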 (primary screen). Cell system: human HCT116-VR colon cancer cells, selected for vorinostat resistance. Knock-down reagent: siRNA pool against human genes, 40 nM siRNA pool. Timing: vorinostat for 24 h, read-out about 72 h after transfection. Challenge: vorinostat at 2.5 µM final. Detection: 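Two measures, CellTiter-Fluor viability and luminescent caspase 3/7 activity, each as fold change against same-plate mock wells, mean of duplicates, then screen-wide robust z-score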. Reading the numbers: viability robust z-score: higher = more viable cells than screen typical; caspase robust z-score: higher = more caspase 3/7 activity than screen typical. Call rule: 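Hits are knock-downs in viability class RV1/RV2 or caspase class CA1/CA2, excluding ones that killed cells in the no-drug cell-count arm; hits then retested with single siRNAs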.
The whole screen tested about 18,000 reagents; shown is a random part of them. 450 of all reagents (2.5%) count as active. 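Single biological run; no consistent viability z cut-off exists, so the class columns, not z-scores, define the calls.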 No sequences are given here.

{"gene":"JAM2 (junctional adhesion molecule 2)","viability hit class":"no change","caspase hit class":"no change","viability robust z-score":-0.62,"caspase robust z-score":-1.09,"outcome":"inactive"}
{"gene":"DYNC2I1 (dynein 2 intermediate chain 1)","viability hit class":"no change","caspase hit class":"no change","viability robust z-score":0.39,"caspase robust z-score":0.97,"outcome":"inactive"}
{"gene":"CHST10 (carbohydrate sulfotransferase 10)","viability hit class":"no change","caspase hit class":"no change","viability robust z-score":0.93,"caspase robust z-score":-0.5,"outcome":"inactive"}
{"gene":"STIM1 (stromal interaction molecule 1)","viability hit class":"no change","caspase hit class":"no change","viability robust z-score":0.84,"caspase robust z-score":-0.52,"outcome":"inactive"}
{"gene":"PATL1 (PAT1 homolog 1, processing body mRNA decay factor)","viability hit class":"no change","caspase hit class":"no change","viability robust z-score":-1.16,"caspase robust z-score":1.59,"outcome":"inactive"}

Part of the list above, showing only “caspase robust z-score”:
JAM2 (junctional adhesion molecule 2)	-1.09
DYNC2I1 (dynein 2 intermediate chain 1)	0.97

The listing continues.
{"gene":"ENKD1 (enkurin domain containing 1)","viability hit class":"no change","caspase hit class":"no change","viability robust z-score":-0.7,"caspase robust z-score":-0.32,"outcome":"inactive"}
{"gene":"SLC37A2","viability hit class":"no change","caspase hit class":"no change","viability robust z-score":-0.01,"caspase robust z-score":2.02,"outcome":"inactive"}
{"gene":"TERF2IP (TERF2 interacting protein)","viability hit class":"no change","caspase hit class":"no change","viability robust z-score":0.61,"caspase robust z-score":-0.54,"outcome":"inactive"}
{"gene":"FREM2 (FRAS1 related extracellular matrix 2)","viability hit class":"no change","caspase hit class":"no change","viability robust z-score":-1.07,"caspase robust z-score":-0.23,"outcome":"inactive"}
{"gene":"OR12D3 (olfactory receptor family 12 subfamily D member 3)","viability hit class":"no change","caspase hit class":"no change","viability robust z-score":-0.66,"caspase robust z-score":-1.36,"outcome":"inactive"}
{"gene":"PABPC4 (poly(A) binding protein cytoplasmic 4)","viability hit class":"no change","caspase hit class":"no change","viability robust z-score":-0.47,"caspase robust z-score":-0.44,"outcome":"inactive"}
{"gene":"DHX16 (DEAH-box helicase 16)","viability hit class":"no change","caspase hit class":"no change","viability robust z-score":-0.25,"caspase robust z-score":0.91,"outcome":"inactive"}
